Measured values published in US12121500B2, “Inhibitors of Bunyaviridae and uses thereof” (priority 2020, dated 2024).

Test system: RVFV strain MP12
Test: microbe, parasite or virus in culture
Format: cell-based
Conditions: Rift Valley fever virus, Vero, read-out: Estimated EC50

## Cc1c2cc(O)c(=O)cc-2oc2cc(O)c(O)cc12 [Compound 8, reference compound]
  EC50: ≥ 120 µM
